Measurements from publication PMC3049795.
No constants are given. Whether binding was seen depends on the method and setting. Binding seen in cells or lysates may run through a third protein. Some binding calls cover weakened binding; strength is not graded here. For some assays here: Tags and fused reporters may be left off the sequences shown.

Columns and labels:
T7-tagged ETK = molecular target: T1, T7-tagged ETK (UniProt P51813); experiment: co-IP; 293T cells co-transfected with T7-Etk and GFP-Bcl-XL; immunoprecipitation with anti-T7 or anti-GFP, immunoblotting; lysis buffer 20 mM Tris/HCl pH 7.4, 150 mM NaCl, 1 mM EDTA, 1 mM EGTA, 1% Triton X-100; antibodies overnight at 4°C
T1 sequence: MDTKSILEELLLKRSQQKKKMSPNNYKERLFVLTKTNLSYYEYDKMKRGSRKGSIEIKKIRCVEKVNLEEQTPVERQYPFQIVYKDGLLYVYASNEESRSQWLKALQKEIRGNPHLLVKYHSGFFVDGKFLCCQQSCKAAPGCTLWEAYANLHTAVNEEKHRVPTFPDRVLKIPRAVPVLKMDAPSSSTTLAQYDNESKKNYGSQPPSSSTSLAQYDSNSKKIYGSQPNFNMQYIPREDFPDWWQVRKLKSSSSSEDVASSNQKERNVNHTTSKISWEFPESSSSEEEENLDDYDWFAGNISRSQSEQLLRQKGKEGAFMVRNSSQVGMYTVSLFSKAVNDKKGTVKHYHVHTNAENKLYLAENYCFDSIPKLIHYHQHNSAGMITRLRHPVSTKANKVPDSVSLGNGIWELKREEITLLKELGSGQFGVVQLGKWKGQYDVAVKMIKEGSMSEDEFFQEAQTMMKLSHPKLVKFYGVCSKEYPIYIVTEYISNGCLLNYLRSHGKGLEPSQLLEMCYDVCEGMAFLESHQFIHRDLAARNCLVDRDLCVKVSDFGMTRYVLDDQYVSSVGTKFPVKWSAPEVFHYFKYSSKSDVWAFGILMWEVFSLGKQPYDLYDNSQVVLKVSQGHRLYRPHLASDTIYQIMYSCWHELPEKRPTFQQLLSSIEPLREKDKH

[1] = molecular target: T2, Epithelial and endothelial tyrosine kinase (ETK) (human (endogenous in UM-UC-3 and T24)) (UniProt P51813); experiment: co-IP; total cell extracts of UM-UC-3 and T24 cells immunoprecipitated with anti-ETK or IgG control, immunoblotting; lysis buffer 20 mM Tris/HCl pH 7.4, 150 mM NaCl, 1 mM EDTA, 1 mM EGTA, 1% Triton X-100; antibodies overnight at 4°C, protein A or G-Sepharose
T2 sequence: T1 sequence

Row | Substance | binding (T7-tagged ETK) | binding [1]
1 | GFP-tagged Bcl-XL (from UniProt Q07817-1 1-233) | binds | –
2 | Bcl-XL (from UniProt Q07817-1 1-233) | – | binds
